Measurements reported in paper PMC6843132.
Results are given in words; binding and its absence hold for the method and conditions named. Some entries that bind do so weakly or less than the wild type. Where a sequence is shown, tags or fusion partners need not be part of it.

Target: T1, 6His-NF-YB2 (AtNF-YB2 aa 24-116) (A. thaliana) (UniProt Q9FGJ3)
T1 sequence: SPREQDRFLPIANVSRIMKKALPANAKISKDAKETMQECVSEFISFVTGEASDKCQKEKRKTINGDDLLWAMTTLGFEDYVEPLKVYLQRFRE
Assay: co-purification (IMAC, then gel filtration); 6His-NF-YB2 and NF-YC3 co-expressed in E. coli; nickel IMAC, thrombin cleavage, gel filtration in 10 mM Tris-HCl pH 8.0, 400 mM NaCl, 2 mM DTT

- binding: binds
B1: NF-YC3 (AtNF-YC3 aa 55-148) (domain or fragment, UniProt Q9ZVL3 55-148)
chain: TQFKEIEKTTDFKNHSLPLARIKKIMKADEDVRMISAEAPVVFARACEMFILELTLRSWNHTEENKRRTLQKNDIAAAVTRTDIFDFLVDIVPR
